Source: patent publication US20240228639A1
Results are given in words; binding and its absence hold for the method and conditions named. Some entries that bind do so weakly or less than the wild type. For some assays here: Sequences can lack the tags named with a protein.

Columns and labels:
[1] = biological target: CD70-specific 4F11-QR3 chimeric antigen receptor (on CAR T cells or CAR Jurkat cells); experiment: flow cytometry, Clone 60-PE at 3 ug/mL on 4F11-QR3 CAR T cells
[2] = biological target: CD70-specific 4F11-QR3 chimeric antigen receptor (on CAR T cells or CAR Jurkat cells); experiment: flow cytometry, PE-conjugated clone 60 on 4F11-QR3 CAR T cells; rows 3 and 4 are clone 60 by paragraph 61 and paragraph 211
[3] = biological target: CD70-specific 4F11-QR3 chimeric antigen receptor (on CAR T cells or CAR Jurkat cells); experiment: flow cytometry; 4F11-QR3 CAR cells pre-incubated with hCD70 at 100 ug/mL, then Clone 60-PE at 1.5 ug/mL
[4] = biological target: CD70-specific 4F11-QR3 chimeric antigen receptor (on CAR T cells or CAR Jurkat cells); experiment: flow cytometry; 0.3 ug/mL PE-conjugated or unconjugated recombinant or hybridoma Clone 60 on 4F11-QR3 CAR T cells
[5] = biological target: CD70-specific 4F11-QR3 chimeric antigen receptor (on CAR T cells or CAR Jurkat cells); experiment: flow cytometry; PE-conjugated antibody titrated from 30 ug/mL on 4F11-QR3 CAR T cells
[6] = biological target: CD70-specific 4F11-QR3 chimeric antigen receptor (on CAR T cells or CAR Jurkat cells); experiment: flow cytometry; 4F11-QR3 CAR Jurkat cells with or without pre-incubation with hCD70 at 100 ug/mL; hybridoma supernatant 1:10, anti-mouse Fc secondary
[7] = biological target: CD70-specific 4F11-QR3 chimeric antigen receptor (on CAR T cells or CAR Jurkat cells); experiment: flow cytometry, PE-conjugated clone 37 on 4F11-QR3 CAR T cells; rows 1 and 2 are clone 37 by paragraph 61 and paragraph 211
Biotin-hCD70 (human) [8] = biological target: T1, Biotin-hCD70 (human) (UniProt P32970); experiment: SPR classic sandwich, hCD70_100nM (Bt-hCD70) or buffer injected over 4F11 scFv 10xHis held by captured clone 60; the rising trace is taken as hCD70, because the legend lines cannot be told apart
T1 sequence (biotinylated (site not stated), looked up): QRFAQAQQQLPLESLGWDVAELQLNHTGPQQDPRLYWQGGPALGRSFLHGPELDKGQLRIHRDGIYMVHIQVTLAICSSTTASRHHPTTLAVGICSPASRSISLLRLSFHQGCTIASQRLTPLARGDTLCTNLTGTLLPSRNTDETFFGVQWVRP

Biotin-hCD70 (human) [9] = biological target: T1, Biotin-hCD70 (human); experiment: SPR simultaneous-binding assays; Biotin-hCD70 at 100 nM premixed with the scFv, or injected after it, on captured clone 60; streptavidin as secondary detection in the premix format
Biotin-hCD70 (human) [10] = biological target: T1, Biotin-hCD70 (human); experiment: SPR, premix of 4F11 scFv 10xHis and Bt-hCD70 over captured clone 60, then streptavidin as secondary detection of the biotinylated hCD70 in the complex

Measured: binding

B1: anti-idiotype antibody Clone 60 (IDA2002-1.60) (antibody, mouse IgG1, kappa, V domains shown)
VH: EVQLQQSGPELVKTGTSVKISCKASGYSITGYYIHWVKQSHGRSLDWIGSISFYNGATTYNQKFKGKVTFTVDTSSSTAYMQFNSLTSEDSAVYYCGRRGDDYDVFAYWGQGTLVTVSA
VL: DIVLTQSPASLAVSLGQRATISCRASESVDSYGYSFLHWYQQKPGQPPTLLIYRASNLESGIPARFSGSGSRTDFTLTINSVEADDVATYYCQQSNEDPWTFGGGTKLEIKR
binds: [1] | [2] | [3] | [4] | [5] | [6]

B2: anti-idiotype antibody Clone 37 (IDA2002-1.37) (antibody, V domains shown)
VH: EVKLEESGGGLVQPGGSMKLSCAASGFTFSDAWMDWVRQSPEKGLEWVAEIRNKANNHATYYAESVKGRFTISRDDSKYNVYLQMNSLRAEDTGIYYCARPLLRGNFDVWGAGTTVTVSS
VL: DIQMTQSSSYLSISLGGRVTITCKASDHINNWLAWYQQKSGNAPRLLISGGTSLETGVPSRFSGSGSGKDYTLSITSLQTEDVATYYCQQYWRTPFTFGSGTKLEIK
binds: [7] | [5]

B3: 4F11 scFv 10xHis (scFv)
scFv: QVTLKESGPVLVKPTETLTLTCTVSGFSLSNARMGVTWIRQPPGKALEWLAHIFSNDEKSYSTSLKSRLTISKDTSKTQVVLTMTNMDPVDTATYYCARIRDYYDISSYYDYWGQGTLVSVSSGGGGSGGGGSGGGGSDIQMTQSPSAMSASVGDRVTITCRASQDISNYLAWFQQKPGKVPKRLIYAASSLQSGVPSRFSGSGSGTEFTLTISSLLPEDFATYYCLQLNSFPFTFGGGTKVEINGGSGHHHHHHHHHH
binds: Biotin-hCD70 (human) [8] | Biotin-hCD70 (human) [9] | Biotin-hCD70 (human) [10]
